Assay results published in PMC9791665.
These are yes or no findings as the source states them, for the method shown. Some results given as binding are weak or reduced against the parent protein; the word gives no strength.

The chains behind the UniProt entries cited, without tags or fusion partners. Residues count along the entry.
UniProt P27540, residues 85-465: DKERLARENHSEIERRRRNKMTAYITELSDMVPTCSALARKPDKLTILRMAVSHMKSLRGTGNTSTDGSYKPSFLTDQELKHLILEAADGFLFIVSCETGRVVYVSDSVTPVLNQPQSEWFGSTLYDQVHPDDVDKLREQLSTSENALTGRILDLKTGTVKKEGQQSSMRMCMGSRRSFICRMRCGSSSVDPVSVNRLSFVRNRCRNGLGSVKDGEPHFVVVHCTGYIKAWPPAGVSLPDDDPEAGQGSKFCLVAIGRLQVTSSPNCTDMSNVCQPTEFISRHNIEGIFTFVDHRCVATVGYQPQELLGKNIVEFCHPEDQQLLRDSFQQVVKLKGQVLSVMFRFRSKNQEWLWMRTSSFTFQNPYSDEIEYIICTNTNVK
UniProt P35869, residues 28-414: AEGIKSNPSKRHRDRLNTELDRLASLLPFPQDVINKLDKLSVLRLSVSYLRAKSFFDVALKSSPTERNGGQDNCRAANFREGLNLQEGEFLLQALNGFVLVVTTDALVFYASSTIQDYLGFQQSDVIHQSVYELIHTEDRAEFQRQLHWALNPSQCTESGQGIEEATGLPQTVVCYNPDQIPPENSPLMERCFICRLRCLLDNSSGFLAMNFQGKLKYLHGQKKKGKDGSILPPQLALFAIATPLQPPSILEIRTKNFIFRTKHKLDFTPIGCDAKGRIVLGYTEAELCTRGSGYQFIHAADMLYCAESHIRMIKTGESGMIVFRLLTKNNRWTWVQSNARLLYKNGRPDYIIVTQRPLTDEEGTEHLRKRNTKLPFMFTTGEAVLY

Biological target: Human ARNT (aa 85-465) (human) (UniProt P27540)
Assay: co-expression and co-purification; AHR and ARNT co-expressed in E. coli Rosetta 2 (DE3) with 20 uM beta-naphthoflavone; purified together on Ni Sepharose, then cation exchange in buffer with 20 uM beta-naphthoflavone; beta-naphthoflavone removed by size exclusion on Superdex 200 PG; stored in 20 mM Tris pH 7.5, 300 mM NaCl, 0.5 mM TCEP

binding: binds
Substance: Human AHR (aa 28-414) (from UniProt P35869 28-414) (domain or fragment)
